Laboratory results taken from US7132450B2, “Hepatic disorder suppressant” (Kagome Co., Ltd., priority 2000, dated 2006).
Some entries share one result that the patent states for a list of compounds.

System: hepatic disorder induced by D-galactosamine
Test: Hepatic disorder suppressing effect of Compounds 1 to 5 given into stomach, D-galactosamine model; ALT and AST
Assay type: in vivo, Wistar rats
Conditions: 100 mg per kg into stomach in avocado oil, 4 hours before D-galactosamine 350 mg per kg into peritoneum; blood 22 hours later; FIG. 4

Compound: CCCCC/C=C\C/C=C\CCCCC/C=C/C(=O)CC(O)COC(C)=O (stereo not shown) [Compound 4]
- hepatic disorder suppressing effect (ALT and AST activity): obvious hepatic disorder suppressing effect
